Measurements reported in patent publication US9629855B2, “Pharmaceutical composition for treatment of eye pain, containing PGE2 synthesis inhibitor” (INDUSTRY-ACADEMIC COOPERATION FOUNDATION, YONSEI UNIVERSITY, priority 2011, dated 2017).
At least one compound was matched to its structure with a doubt left.

Legend:
Assay type in all cases: in vivo
ocular pain-induced mice = experiment: Corneal erosion in ocular pain-induced (dry eye chamber) mice; settings: B6 mice, dry eye chamber 1 week; 5 μg/ml intraocularly twice a day, after 1 week; vs 0.1% hyaluronic acid control (FIG. 2)
TNF-alpha mRNA = TNF-alpha mRNA on the surface of enucleated eyeballs, real time RT-PCR; settings: B6 mice, 5 μg/ml intraocularly twice a day, after 1 week; eyeball surface; vs 0.1% hyaluronic acid control (FIG. 3)
IL-1 mRNA = IL-1 mRNA on the surface of enucleated eyeballs, real time RT-PCR; settings: B6 mice, 5 μg/ml intraocularly twice a day, after 1 week; eyeball surface; vs 0.1% hyaluronic acid control (FIG. 4)

**Q.** How did the corneal erosion (ocular pain-induced mice) turn out when `Cc1ccc(-c2cc(C(F)(F)F)nn2-c2ccc(S(N)(=O)=O)cc2)cc1` [Celecoxib] was run?
**A.** Its corneal erosion is “significantly decreased”.

**Q.** What about the “mRNA level of TNF-alpha” value (TNF-alpha mRNA) of the same compound?
**A.** Its value is “greatly decreased”.

**Q.** And the “mRNA level of IL-1” value (IL-1 mRNA)?
**A.** The value was “greatly decreased”.
